This is an account of results in paper PMC9295057.

The chains behind the UniProt entries cited, without tags or fusion partners. Residues count along the entry.
UniProt Q03405, residues 23-305: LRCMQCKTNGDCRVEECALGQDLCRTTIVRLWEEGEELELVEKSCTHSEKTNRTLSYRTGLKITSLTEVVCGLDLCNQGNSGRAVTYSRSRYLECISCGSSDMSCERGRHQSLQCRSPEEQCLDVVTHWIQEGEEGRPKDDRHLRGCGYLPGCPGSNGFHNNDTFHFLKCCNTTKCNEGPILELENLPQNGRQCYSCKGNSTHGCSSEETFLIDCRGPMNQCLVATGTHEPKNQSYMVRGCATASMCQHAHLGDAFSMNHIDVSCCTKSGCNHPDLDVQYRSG
UniProt Q9NQB0: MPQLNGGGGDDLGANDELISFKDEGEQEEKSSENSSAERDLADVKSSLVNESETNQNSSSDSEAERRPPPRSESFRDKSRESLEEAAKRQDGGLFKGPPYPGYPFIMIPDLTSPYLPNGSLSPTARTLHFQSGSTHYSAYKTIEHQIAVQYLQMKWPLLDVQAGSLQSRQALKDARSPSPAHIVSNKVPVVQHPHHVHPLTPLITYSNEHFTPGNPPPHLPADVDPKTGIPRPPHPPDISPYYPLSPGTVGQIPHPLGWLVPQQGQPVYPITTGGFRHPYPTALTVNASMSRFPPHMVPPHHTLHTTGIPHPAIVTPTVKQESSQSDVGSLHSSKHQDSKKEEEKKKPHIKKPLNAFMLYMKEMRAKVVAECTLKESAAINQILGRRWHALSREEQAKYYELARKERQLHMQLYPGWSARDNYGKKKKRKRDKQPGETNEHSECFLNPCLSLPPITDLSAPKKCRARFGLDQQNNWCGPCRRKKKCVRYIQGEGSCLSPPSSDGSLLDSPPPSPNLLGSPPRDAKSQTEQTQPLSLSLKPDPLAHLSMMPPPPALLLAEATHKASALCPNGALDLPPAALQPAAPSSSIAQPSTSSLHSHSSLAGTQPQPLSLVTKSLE

For this experiment, the target named is urokinase-type plasminogen activator receptor (PLAUR) (UniProt Q03405). The experiment can be described thus: co-IP; lysates incubated with Flag affinity beads; interacting proteins detected by western blot; cells and Flag-tagged partner not stated.

Results are given in words; binding and its absence hold for the method and conditions named. In cells and extracts the contact can be indirect.

Regarding “Transcription Factor 7 Like 2 (TCF7L2) (from UniProt Q9NQB0 1-619)”, the binding entry was “no binding”.
